Laboratory results taken from the supplement of paper PMC4749390.
Counter-ions that a name gives are not always drawn. The list shows a part of the results. This data set is noisy: repeats of one test often differ as much as different tests do.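 JEG3 cells stably express tetracycline-inducible wild-type human LRH-1, a highly sumoylated nuclear receptor. SUMO-sensitive transcripts APOC3 and MUC1, increased by SUMO-deficient LRH-1 or UBC9 knockdown, were quantified by RT-qPCR relative to TBP and DMSO controls. Primary hits had robust Z-scores above +2 or below -2, before toxicity and TBP filtering.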

Test system: JEG3 expressing hLRH-1
Experiment: MUC1 transcript change (ddCt vs TBP and DMSO), Z-score over library; higher = higher MUC1 expression
Conditions: 10 µM; time (hr): 24

Row | Structure (SMILES) | MUC1 transcript change (Z-score)
1 | CCO/C(O)=C1/C(C)=NC(C)=C(C(=O)OC)C1c1cccc(Cl)c1Cl (centres undefined) [felodipine] | -0.277
2 | CN(C)CCC=C1c2ccccc2C=Cc2ccccc21 [cyclobenzaprine hydrochloride] | -1.85
3 | CC(C(=O)O)c1cccc(Oc2ccccc2)c1 (centres undefined) [fenoprofen] | -0.451
4 | CCCCC/C=C/CCC(=O)N[C@H]1[C@H](Oc2c3cc4cc2Oc2ccc(cc2Cl)[C@@H](O[C@@H]2O[C@H](CO)[C@@H](O)[C@H](O)[C@H]2NC(C)=O)[C@@H]2NC(=O)[C@H](NC(=O)[C@@H]4NC(=O)[C@H]4NC(=O)C(Cc5ccc(c(Cl)c5)O3)NC(=O)[C@H](N)c3ccc(O)c(c3)Oc3cc(O)cc4c3)c3ccc(O)c(c3)-c3c(OC4O[C@H](CO)[C@@H](O)[C@H](O)[C@@H]4O)cc(O)cc3[C@@H](C(=O)O)NC2=O)O[C@H](CO)[C@@H](O)[C@@H]1O (some centres undefined) [teicoplanin [a(2-1) shown]] | 0.4
5 | CCCc1ncc(C[n+]2ccccc2C)c(N)n1 [amprolium] | 0.736
6 | N=C(N)NC(=O)c1nc(Cl)c(N)nc1N [Amiloride hydrochloride] | 1.16
7 | CC(C)(C)NCC(O)COc1cccc2c1C[C@H](O)[C@H](O)C2 (some centres undefined) [nadolol] | 0.61
8 | CCN(CC)Cc1ccc(Nc2ccnc3cc(Cl)ccc23)cc1O [amodiaquine dihydrochloride] | -0.428
9 | CC(C)(C)NCC(O)COc1cccc2c1CCC(=O)N2 (centres undefined) [carteolol hydrochloride] | 0.187
10 | CC(C)NCC(O)COc1cccc2ccccc12 (racemic) [(±)-Propranolol hydrochloride] | -1.15
11 | CS(=O)(=O)c1ccc([C@@H](O)[C@@H](CF)NC(=O)C(Cl)Cl)cc1 [florfenicol] | 0.926
12 | CCN(CC)CCCC(C)Nc1ccnc2cc(Cl)ccc12 (centres undefined) [Chloroquine phosphate] | 1.16
13 | FCOC(C(F)(F)F)C(F)(F)F [sevoflurane] | 0.832
14 | N[C@@H](CC(=O)O)C(=O)O [L-Aspartic acid] | 0.86
15 | CC(=O)O[C@]1(C(C)=O)CCC2C3C=C(Cl)C4=CC(=O)CC[C@]4(C)C3CC[C@@]21C (some centres undefined) [chlormadinone acetate] | 0.459
16 | Oc1ccc(C2CNCCc3c2cc(O)c(O)c3Cl)cc1 (centres undefined) [fenoldipam mesylate] | -0.771
17 | C[Se]CC[C@H](N)C(=O)O [selenomethionine] | 0.604
18 | CCCCCN(C)CCC(O)(P(=O)(O)O)P(=O)(O)O [ibandronate sodium] | -1.74
19 | NC(=O)c1ccccc1O [salicylamide] | 0.169
20 | Oc1c(Br)cc(Br)c2cccnc12 [broxyquinoline] | 1.56
21 | c1ccc(CN(CC2=NCCN2)c2ccccc2)cc1 [antazoline phosphate] | 0.0812
22 | N#Cc1ccc(C(c2ccc(C#N)cc2)n2cncn2)cc1 [letrozole] | -0.747
23 | NC(=O)c1cc[n+](CC2=C(C(=O)O)N3C(=O)C(NC(=O)C(c4ccccc4)S(=O)(=O)[O-])C3SC2)cc1 (centres undefined) [cefsulodin sodium] | 1.58
24 | CC(=O)[C@@]12O[C@](C)(c3ccccc3)O[C@@H]1C[C@H]1[C@@H]3CCC4=CC(=O)CC[C@]4(C)[C@H]3CC[C@@]12C [algestone acetophenide] | 0.214
25 | O=C(O)Cc1ccccc1Nc1c(Cl)cccc1Cl [Diclofenac sodium] | 0.256

Two successive records out of the list so far:
Row | Structure (SMILES) | MUC1 transcript change (Z-score)
2 | CN(C)CCC=C1c2ccccc2C=Cc2ccccc21 [cyclobenzaprine hydrochloride] | -1.85
3 | CC(C(=O)O)c1cccc(Oc2ccccc2)c1 (centres undefined) [fenoprofen] | -0.451

Further compounds follow.

Row | Structure (SMILES) | MUC1 transcript change (Z-score)
26 | CCCSc1ccc2[nH]c(NC(=O)OC)nc2c1 [albendazole] | -0.554
27 | CO[C@H]1/C=C/O[C@@]2(C)Oc3c(C)c(O)c4c(O)c(c(/C=N/N5CCN(C)CC5)c(O)c4c3C2=O)NC(=O)/C(C)=C\C=C\[C@H](C)[C@H](O)[C@@H](C)[C@@H](O)[C@@H](C)[C@H](OC(C)=O)[C@@H]1C [rifampin] | -0.434
28 | CC(C)NCC(O)c1ccc(O)c(O)c1 (racemic) [(±)-Isoproterenol hydrochloride] | 0.61
29 | Cc1ccc(NC(=O)c2ccc(CN3CCN(C)CC3)cc2)cc1Nc1nccc(-c2cccnc2)n1 [imatinib] | -0.0843
30 | Nc1ccn([C@H]2CC[C@@H](CO)O2)c(=O)n1 [zalcitabine] | 0.524
31 | CCc1ccc(CCOc2ccc(CC3SC(=O)NC3=O)cc2)nc1 (centres undefined) [pioglitazone hydrochloride] | -0.469
32 | CC(C)(Oc1ccc(CCNC(=O)c2ccc(Cl)cc2)cc1)C(=O)O [bezafibrate] | -0.746
33 | CC1/C=C/C=C/C=C/C=C/C=C/C=C/C=C/C(O[C@@H]2O[C@H](C)[C@H](O)[C@@H](O)[C@@H]2N)CC(O)C(C(=O)O)C(O)CC(=O)CC(O)CC(O)CC(O)CC(=O)CCCC(=O)CC(=O)OC1C(C)CC(C)C(O)CC(=O)c1ccc(N)cc1 (some centres undefined) [candicidin] | 0.997
34 | Nc1ccc(O)c(C(=O)O)c1 [mesalamine] | 1.23
35 | NS(=O)(=O)c1cc2c(cc1Cl)NC(CSCc1ccccc1)=NS2(=O)=O [benzthiazide] | 0.37
36 | Cc1cccc(C)c1NC(=O)c1ccccc1C(=O)O [ftaxilide] | 0.0131
37 | Cc1ccc(Cl)c(Nc2ccccc2C(=O)O)c1Cl [sodium meclofenamate] | -0.0507
38 | Nc1ccc(S(=O)(=O)NC(=O)c2ccccc2)cc1 [sulfabenzamide] | -0.147
39 | CO[C@@]12[C@H](COC(N)=O)C3=C(C(=O)C(C)=C(N)C3=O)N1C[C@@H]1N[C@@H]12 [mitomycin c] | -4.59
40 | Oc1ccc(OCc2ccccc2)cc1 [monobenzone] | 0.00581
41 | Nc1nc(N)c2nc(-c3ccccc3)c(N)nc2n1 [Triamterene] | 0.145
42 | CNCCCC1c2ccccc2C=Cc2ccccc21 [Protriptyline hydrochloride] | 1.28
43 | CCCCCCNC(=O)n1cc(F)c(=O)[nH]c1=O [carmofur] | -0.0795
44 | C[C@H]1CC2C3CCC4=CC(=O)C=C[C@]4(C)[C@@]3(F)[C@@H](O)C[C@]2(C)[C@@]1(O)C(=O)COP(=O)(O)O (some centres undefined) [betamethasone sodium phosphate] | -1.03
45 | Cc1cccc(N(C)C(=S)Oc2ccc3ccccc3c2)c1 [tolnaftate] | -0.356
46 | O=C1C2CC3CC1CC(O)(C3)C2 [idramantone] | -0.461
47 | Cc1cc2nc3ccc(N(C)C)cc3[s+]c2cc1N [tolonium chloride] | 0.212
48 | CC1(C)O[C@@H]2C[C@H]3[C@@H]4CCC5=CC(=O)C=C[C@]5(C)[C@@]4(F)[C@@H](O)C[C@]3(C)[C@]2(C(=O)CO)O1 [triamcinolone acetonide] | 0.171
49 | O=C(Nc1ccc([N+](=O)[O-])cc1Cl)c1cc(Cl)ccc1O [nicolsamide] | 1.06
50 | CCCc1cc(O)nc(S)n1 [propylthiouracil] | -0.0176

Row | Structure (SMILES) | MUC1 transcript change (Z-score)
51 | Cc1oncc1C(=O)Nc1ccc(C(F)(F)F)cc1 [lefunamide] | 0.729
52 | Cc1nnc(NS(=O)(=O)c2ccc(N)cc2)s1 [sulfamethizole] | 0.304
53 | NC(=O)c1cc[n+](CC2=C(C(=O)O)N3C(=O)[C@@H](NC(=O)Cc4cccs4)[C@H]3SC2)cc1 [cefalonium] | -0.71
54 | CC(=O)OCC(=O)[C@@]1(O)CCC2C3CCC4=CC(=O)CC[C@]4(C)C3C(=O)C[C@@]21C (some centres undefined) [cortisone acetate] | 0.324
55 | Clc1ccc(CO/N=C(\Cn2ccnc2)c2ccc(Cl)cc2Cl)c(Cl)c1 [oxiconazole nitrate] | 0.0443
56 | FC(F)(Cl)C(F)(F)Cl [cryoflurane] | 0.279
57 | N=C(N)c1ccc(OCCCCCOc2ccc(C(=N)N)cc2)cc1 [Pentamidine isethionate] | -0.706
58 | CCC(=O)c1c(O)cc(O)cc1O [flopropione] | 0.76
59 | CCOC(=O)n1ccn(C)c1=S [carbimazole] | 0.143
60 | NC1CCN(c2c(F)cc3c(=O)c(C(=O)O)cn(C4CC4)c3c2Cl)C1 (centres undefined) [clinafoxacin hydrochloride] | 0.373
61 | CO/N=C(\C(=O)N[C@@H]1C(=O)N2C(C(=O)O)=C(COC(N)=O)CS[C@H]12)c1ccco1 [cefuroxime sodium] | 0.592
62 | CN(C)CC/C=C1/c2ccccc2COc2ccccc21 [doxepin hydrochloride] | -0.0122
63 | CCCCCCCCCCCCCCCC(=O)O[C@@H]1[C@@H](O)[C@@H](O)[C@@H]([C@H](NC(=O)[C@@H]2C[C@@H](CCC)CN2C)[C@H](C)Cl)O[C@@H]1SC [clindamycin palmitate hydrochloride] | 0.619
64 | Clc1ccc(COC(Cn2ccnc2)c2ccc(Cl)cc2Cl)c(Cl)c1 (centres undefined) [miconazole nitrate] | 0.364
65 | N[C@@H](C(=O)N[C@@H]1C(=O)N2C(C(=O)O)=C(Cl)CS[C@H]12)c1ccccc1 [cefaclor] | -0.0783
66 | CC(C)Cn1cnc2c(N)nc3ccccc3c21 [imiquimod] | -0.243
67 | O=C(CNC(=O)c1ccc(Cl)cc1)NO [benurestat] | -0.802
68 | Nc1nc(O)ncc1F [flucytosine] | 1.06
69 | CC(=O)OC1CC2CCC1(C)C2(C)C (centres undefined) [bornyl acetate] | -0.0806
70 | COc1ccccc1N1CCN(CC(O)COc2cccc3ccccc23)CC1 (centres undefined) [Naftopidil dihydrochloride] | 0.923
71 | CC(NCCc1ccc(O)cc1)C(O)c1ccc(O)cc1 (centres undefined) [ritodrine hydrochloride] | 0.34
72 | CN1CCC(=C2c3ccccc3CC(=O)c3sccc32)CC1 [ketotifen fumarate] | 0.793
73 | Cc1nc2n(c(=O)c1CCN1CCC(c3noc4cc(F)ccc34)CC1)CCC[C@H]2O [paliperidone] | -0.749
74 | CC(C)NCC(O)c1ccc2ccccc2c1 (centres undefined) [pronetalol hydrochloride] | -0.28
